Results deposited as PubChem BioAssay AID1508597 (Cure First, 2020)

Aim: 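Genes whose silencing sensitises or protects ovarian cancer cells against rucaparib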 (primary screen)
System: human ovarian carcinoma lines grown from tumours: OCI-P5x (papillary serous) and OCI-C5x (clear cell)
Reagents: siRNA pool against human genes, 1.25 pmol siRNA per well
Time to read-out: 72 h or 96 h, depending on the cell culture
Conditions: rucaparib 20 µM (about IC30) or vehicle, present until read-out
Rucaparib or vehicle: Rucaparib
Cell line: OCI-C5x (clear cell)
Read-out: 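Luminescent ATP-based viability assay read 72 or 96 h after transfection, depending on culture, given as normalised percent viability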
Direction: viability, normalised: higher = more viable cells remaining
Hit rule: 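Active when normalised viability falls below 80 percent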
Calls: active = viability under 80%; inactive = viability 80% or more
This is an unselected part of the about 2,100 reagents, under one of the conditions tested. 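Calls flag viability under 80% in either arm, not effects specific to rucaparib; the reference for percent is not stated.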 A reagent listed more than once was tested more than once; the source does not tell the runs apart. Not stated in the record: the 100% reference.

no.	gene	PubChem SID	technical replicate	viability, normalised (%)	activity call
1	RBL2	SID405527236	1	53.7	active
2	RBL2	SID405527236	2	49.9	active
3	RBL2	SID405527236	3	39.6	active
4	SATB1	SID405527272	1	55.8	active
5	SATB1	SID405527272	2	47.3	active
6	SATB1	SID405527272	3	39.6	active
7	PYGO2	SID405527219	1	54.9	active
8	PYGO2	SID405527219	2	51.2	active
9	PYGO2	SID405527219	3	57.1	active
10	SCYL2	SID405528507	1	46.3	active
11	SCYL2	SID405528507	2	46.5	active
12	SCYL2	SID405528507	3	46.5	active
13	PFKP	SID405527757	1	56.8	active
14	PFKP	SID405527757	2	61.1	active
15	PFKP	SID405527757	3	61.5	active
16	AK5	SID405527880	1	62.1	active
17	AK5	SID405527880	2	65.1	active
18	AK5	SID405527880	3	34	active
19	COX6C	SID405526380	1	65.6	active
20	COX6C	SID405526380	2	50.8	active
21	COX6C	SID405526380	3	50.1	active
22	GCKR	SID405526810	1	26.5	active
23	GCKR	SID405526810	2	14.3	active
24	GCKR	SID405526810	3	17.7	active
25	MAP2K7	SID405526440	1	52.5	active
26	MAP2K7	SID405526440	1	43.6	active
27	MAP2K7	SID405526440	2	57.7	active
28	MAP2K7	SID405526440	2	53.5	active
29	MAP2K7	SID405526440	3	48.1	active
30	MAP2K7	SID405526440	3	58.3	active
31	MAGI1	SID405527729	1	46.1	active
32	MAGI1	SID405527729	2	42.7	active
33	MAGI1	SID405527729	3	31	active
34	TK2	SID405528593	1	48.5	active
35	TK2	SID405528593	2	42.8	active
36	TK2	SID405528593	3	41.2	active

Continued, starting with the last 6 of the part before.
no.	gene	PubChem SID	technical replicate	viability, normalised (%)	activity call
31	MAGI1	SID405527729	1	46.1	active
32	MAGI1	SID405527729	2	42.7	active
33	MAGI1	SID405527729	3	31	active
34	TK2	SID405528593	1	48.5	active
35	TK2	SID405528593	2	42.8	active
36	TK2	SID405528593	3	41.2	active
37	TERF1	SID405526551	1	42.9	active
38	TERF1	SID405526551	1	35.6	active
39	TERF1	SID405526551	2	44.4	active
40	TERF1	SID405526551	2	35.7	active
41	TERF1	SID405526551	3	50	active
42	TERF1	SID405526551	3	31	active
43	DNER	SID405528232	1	45.9	active
44	DNER	SID405528232	2	40.3	active
45	DNER	SID405528232	3	40.7	active
46	PRPS2	SID405527559	1	47.7	active
47	PRPS2	SID405527559	2	66	active
48	PRPS2	SID405527559	3	62.4	active
49	CHD8	SID405528107	1	68.2	active
50	CHD8	SID405528107	2	58.8	active
51	CHD8	SID405528107	3	63.8	active
52	EPHA6	SID405527837	1	56.4	active
53	EPHA6	SID405527837	2	51.6	active
54	EPHA6	SID405527837	3	48.1	active
55	MED15	SID405526990	1	48.5	active
56	MED15	SID405526990	2	58.2	active
57	MED15	SID405526990	3	50.4	active
